We go through one compound from publication PMC6858451, “Rhesus Theta Defensin 1 Promotes Long Term Survival in Systemic Candidiasis by Host Directed Mechanisms” (Scientific Reports, 2019).

Bridge positions count the residues as written; N and C are the ends. Peptide text beside a SMILES is read from it.

This series can be described thus: RTD-1 plasma pharmacokinetics. The procedure: RTD-1 plasma levels were also analyzed 60 or 240 min after additional daily 5 mg/kg i.p. doses administered up to 6 days.
Single dose PK of RTD-1 was evaluated by quantifying plasma peptide concentrations at intervals following 5 mg/kg bolus injections administered i.v. and i.p. to CD-1 mice. At indicated intervals, plasma was prepared from EDTA-anticoagulated blood collected aseptically by terminal cardiac puncture. Plasma was diluted 1:10 or 1:20 into 5% formic/5% acetonitrile. RTD-1 plasma concentrations were determined by reverse-phase liquid chromatography (XBridge phenyl 3.5 µm column, Waters) on an Acquity H-Class UPLC (Waters) with tandem electrospray mass spectroscopy on a Xevo TQ-S running MassLynx V4.1 (Waters). Quantitative mass spectroscopy was performed by multiple-reaction monitoring transition 417.38 > 517.14, with area under the curve determined by TargetLynx (Waters). Pharmacokinetic modeling of intravenous RTD-1 concentration-time data was performed with ADAPT (version 5) software using the naïve pooled data approach. One- and two-compartment models were evaluated. […] Area under the curve (AUC24) was calculated by taking the average of RTD-1 concentrations at each time point and applying the linear trapezoidal method. Bioavailability (F) for i.p. injection was determined using the ratio of AUCs from i.p. and i.v.

With `CC[C@H](C)[C@@H]1NC(=O)[C@@H]2CSSC[C@H](NC(=O)[C@H](CCCNC(=N)N)NC(=O)[C@@H]3CSSC[C@H](NC1=O)C(=O)N[C@@H]([C@@H](C)O)C(=O)N[C@@H](CCCNC(=N)N)C(=O)NCC(=O)N[C@@H](Cc1ccccc1)C(=O)N3)C(=O)N[C@@H](CC(C)C)C(=O)N[C@H]1CSSC[C@H](NC(=O)[C@H](C(C)C)NC(=O)CNC(=O)[C@H](CCCNC(=N)N)NC(=O)[C@H](CCCNC(=N)N)NC1=O)C(=O)N[C@@H](CCCNC(=N)N)C(=O)N2` [RTD-1, Rhesus theta (θ) defensin-1] (cyclo(GFCRCLCRRGVCRCICTR); disulfide 3-16, 5-14, 7-12 (inferred); ring closure inferred), the “MICs in 50% mouse serum relative to plasma Cmax” value (5 mg/kg i.p.) was “at least 100 fold”. Further, the “Cmax as share of RTD-1 levels required for in vitro antifungal activity in 50% mouse serum” value (efficacious peptide doses) was “less than 1%”.
